Results are given in words; binding and its absence hold for the method and conditions named. In cells and extracts the contact can be indirect. Some binding calls cover weakened binding; strength is not graded here. Tags and fused reporters may be left off the sequences shown.
Target: T1, Miz-1/GFP (Myc-interacting zinc finger protein 1) (UniProt Q13105)
T1 sequence: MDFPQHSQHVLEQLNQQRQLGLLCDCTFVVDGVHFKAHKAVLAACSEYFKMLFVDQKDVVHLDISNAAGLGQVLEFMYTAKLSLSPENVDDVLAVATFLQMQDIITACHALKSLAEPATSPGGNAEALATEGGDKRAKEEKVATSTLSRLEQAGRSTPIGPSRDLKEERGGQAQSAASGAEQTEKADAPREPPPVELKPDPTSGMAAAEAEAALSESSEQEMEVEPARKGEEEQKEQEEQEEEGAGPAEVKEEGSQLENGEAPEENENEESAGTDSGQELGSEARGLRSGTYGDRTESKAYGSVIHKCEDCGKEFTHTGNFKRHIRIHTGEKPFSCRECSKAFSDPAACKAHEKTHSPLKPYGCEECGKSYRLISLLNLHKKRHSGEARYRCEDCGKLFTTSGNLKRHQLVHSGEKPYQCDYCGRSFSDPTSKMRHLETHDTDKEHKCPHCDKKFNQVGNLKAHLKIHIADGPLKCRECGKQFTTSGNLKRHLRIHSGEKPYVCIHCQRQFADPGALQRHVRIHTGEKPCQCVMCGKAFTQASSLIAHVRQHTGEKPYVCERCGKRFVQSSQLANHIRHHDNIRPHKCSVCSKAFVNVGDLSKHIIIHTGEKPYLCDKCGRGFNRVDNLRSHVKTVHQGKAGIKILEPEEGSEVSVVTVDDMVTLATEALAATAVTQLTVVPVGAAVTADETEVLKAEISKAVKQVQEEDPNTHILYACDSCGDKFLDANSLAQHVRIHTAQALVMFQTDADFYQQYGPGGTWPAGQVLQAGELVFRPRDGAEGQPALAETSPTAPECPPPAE
Experiment: co-IP; Cos-1 cells co-transfected with Miz-1/GFP and Arnt/Flag variants; whole cell extract (25 mM Hepes, 100 mM NaCl, 5 mM EDTA, 0.5% Triton, 20% glycerol); IP with anti-GFP on Protein G agarose overnight at 4°C, immunoblot with anti-Flag

Amino acid sequences for entries named in this document (tags omitted). A change or cut given only in a name is not applied to a line headed by its entry. Chains listed by the source or under a name are the forms on record and can include a tag or linker.
Arnt (L114A/T115D/R118G/S126A)/Flag (P27540-2, form named): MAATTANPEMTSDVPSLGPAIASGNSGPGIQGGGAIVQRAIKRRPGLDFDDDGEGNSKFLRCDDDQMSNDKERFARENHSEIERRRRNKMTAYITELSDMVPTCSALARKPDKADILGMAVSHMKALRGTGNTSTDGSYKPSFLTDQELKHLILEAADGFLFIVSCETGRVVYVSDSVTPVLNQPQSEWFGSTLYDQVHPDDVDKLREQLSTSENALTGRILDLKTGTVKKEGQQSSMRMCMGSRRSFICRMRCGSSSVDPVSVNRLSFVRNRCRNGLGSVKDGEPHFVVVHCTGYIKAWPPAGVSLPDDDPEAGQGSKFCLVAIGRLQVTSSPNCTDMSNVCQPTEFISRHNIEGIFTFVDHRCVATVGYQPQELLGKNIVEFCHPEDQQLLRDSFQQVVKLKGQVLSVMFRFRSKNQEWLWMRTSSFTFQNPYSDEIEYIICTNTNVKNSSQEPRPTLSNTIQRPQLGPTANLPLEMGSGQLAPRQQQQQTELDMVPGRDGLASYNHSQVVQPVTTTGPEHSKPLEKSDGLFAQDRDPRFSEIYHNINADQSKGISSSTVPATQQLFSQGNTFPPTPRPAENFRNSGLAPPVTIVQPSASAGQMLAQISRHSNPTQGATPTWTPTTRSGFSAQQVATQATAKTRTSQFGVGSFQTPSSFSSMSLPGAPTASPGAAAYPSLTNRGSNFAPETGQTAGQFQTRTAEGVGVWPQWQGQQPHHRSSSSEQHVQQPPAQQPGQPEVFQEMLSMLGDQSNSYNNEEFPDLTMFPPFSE
Arnt (T115D/S126A)/Flag (P27540-2, form named): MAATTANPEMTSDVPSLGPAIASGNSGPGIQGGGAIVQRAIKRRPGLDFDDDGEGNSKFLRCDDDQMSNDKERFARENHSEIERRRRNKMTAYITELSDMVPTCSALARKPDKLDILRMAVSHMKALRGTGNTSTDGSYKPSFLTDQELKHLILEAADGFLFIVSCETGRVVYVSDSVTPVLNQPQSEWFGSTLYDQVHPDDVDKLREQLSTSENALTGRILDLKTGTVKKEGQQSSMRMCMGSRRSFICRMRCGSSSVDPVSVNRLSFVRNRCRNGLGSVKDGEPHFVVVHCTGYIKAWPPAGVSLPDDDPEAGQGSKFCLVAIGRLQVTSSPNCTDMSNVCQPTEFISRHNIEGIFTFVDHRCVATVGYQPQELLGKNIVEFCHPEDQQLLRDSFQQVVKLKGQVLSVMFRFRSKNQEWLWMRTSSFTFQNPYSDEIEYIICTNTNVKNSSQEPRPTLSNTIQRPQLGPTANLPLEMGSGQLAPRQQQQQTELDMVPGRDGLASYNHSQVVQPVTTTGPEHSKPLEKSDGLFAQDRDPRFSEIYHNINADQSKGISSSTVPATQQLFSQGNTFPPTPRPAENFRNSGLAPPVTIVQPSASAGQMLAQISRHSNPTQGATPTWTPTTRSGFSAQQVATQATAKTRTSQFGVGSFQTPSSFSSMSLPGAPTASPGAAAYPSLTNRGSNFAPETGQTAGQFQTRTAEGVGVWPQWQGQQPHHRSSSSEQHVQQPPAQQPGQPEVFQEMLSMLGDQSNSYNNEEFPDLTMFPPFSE
Arnt/Flag (aryl hydrocarbon receptor nuclear translocator, wild type) (P27540-2, form named): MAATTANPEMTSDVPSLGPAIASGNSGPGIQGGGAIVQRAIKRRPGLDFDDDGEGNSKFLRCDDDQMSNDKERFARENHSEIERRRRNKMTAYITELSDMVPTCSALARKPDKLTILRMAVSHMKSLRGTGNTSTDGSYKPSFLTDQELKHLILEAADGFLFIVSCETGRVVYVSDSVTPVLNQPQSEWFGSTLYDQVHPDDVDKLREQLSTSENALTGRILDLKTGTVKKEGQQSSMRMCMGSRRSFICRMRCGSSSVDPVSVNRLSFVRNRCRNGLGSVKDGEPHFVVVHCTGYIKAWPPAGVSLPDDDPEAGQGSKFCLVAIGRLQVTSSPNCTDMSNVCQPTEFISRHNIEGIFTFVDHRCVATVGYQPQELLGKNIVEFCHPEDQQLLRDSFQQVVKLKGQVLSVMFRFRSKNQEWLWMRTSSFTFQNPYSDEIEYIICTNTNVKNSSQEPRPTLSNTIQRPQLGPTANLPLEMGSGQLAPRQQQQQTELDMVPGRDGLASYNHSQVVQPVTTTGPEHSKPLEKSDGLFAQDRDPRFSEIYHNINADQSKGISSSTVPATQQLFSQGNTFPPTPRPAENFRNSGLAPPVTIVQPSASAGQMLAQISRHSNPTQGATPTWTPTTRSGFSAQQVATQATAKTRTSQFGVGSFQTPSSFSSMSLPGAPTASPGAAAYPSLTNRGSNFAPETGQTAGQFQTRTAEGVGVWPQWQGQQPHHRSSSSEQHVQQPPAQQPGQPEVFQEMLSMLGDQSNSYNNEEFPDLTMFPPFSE

binding	Substance
no binding	Arnt (L114A/T115D/R118G/S126A)/Flag (from UniProt P27540-2 1-774)
binds weakly	Arnt (T115D/S126A)/Flag (from UniProt P27540-2 1-774)
binds	Arnt/Flag (aryl hydrocarbon receptor nuclear translocator, wild type) (from UniProt P27540-2 1-774)

Reference: PMC3984710
